In this assay the target is CRY2–nYFP (Arabidopsis) (UniProt Q96524). The experiment in a line: split reporter; BiFC (nYFP/cYFP) in Arabidopsis protoplasts, blue light (2% of the 488 nm laser power) for the indicated time.

Sequences of proteins named here, by UniProt entry; tags and fusion partners are left off.
UniProt Q96524: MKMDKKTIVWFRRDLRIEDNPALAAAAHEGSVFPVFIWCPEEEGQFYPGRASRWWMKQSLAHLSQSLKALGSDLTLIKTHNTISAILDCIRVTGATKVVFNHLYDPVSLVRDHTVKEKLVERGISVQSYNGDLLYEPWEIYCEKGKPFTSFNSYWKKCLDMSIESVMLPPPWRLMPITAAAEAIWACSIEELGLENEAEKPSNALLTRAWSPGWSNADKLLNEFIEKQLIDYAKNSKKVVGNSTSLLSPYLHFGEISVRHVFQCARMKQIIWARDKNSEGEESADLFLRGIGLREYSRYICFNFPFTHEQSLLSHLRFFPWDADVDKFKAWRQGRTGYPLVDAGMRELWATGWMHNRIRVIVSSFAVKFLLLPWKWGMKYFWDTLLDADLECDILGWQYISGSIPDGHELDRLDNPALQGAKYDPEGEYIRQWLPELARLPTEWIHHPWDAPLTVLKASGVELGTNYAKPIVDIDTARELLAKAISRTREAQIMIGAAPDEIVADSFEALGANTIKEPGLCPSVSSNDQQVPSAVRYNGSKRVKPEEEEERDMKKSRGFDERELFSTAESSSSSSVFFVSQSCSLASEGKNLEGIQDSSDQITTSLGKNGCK
UniProt O82486: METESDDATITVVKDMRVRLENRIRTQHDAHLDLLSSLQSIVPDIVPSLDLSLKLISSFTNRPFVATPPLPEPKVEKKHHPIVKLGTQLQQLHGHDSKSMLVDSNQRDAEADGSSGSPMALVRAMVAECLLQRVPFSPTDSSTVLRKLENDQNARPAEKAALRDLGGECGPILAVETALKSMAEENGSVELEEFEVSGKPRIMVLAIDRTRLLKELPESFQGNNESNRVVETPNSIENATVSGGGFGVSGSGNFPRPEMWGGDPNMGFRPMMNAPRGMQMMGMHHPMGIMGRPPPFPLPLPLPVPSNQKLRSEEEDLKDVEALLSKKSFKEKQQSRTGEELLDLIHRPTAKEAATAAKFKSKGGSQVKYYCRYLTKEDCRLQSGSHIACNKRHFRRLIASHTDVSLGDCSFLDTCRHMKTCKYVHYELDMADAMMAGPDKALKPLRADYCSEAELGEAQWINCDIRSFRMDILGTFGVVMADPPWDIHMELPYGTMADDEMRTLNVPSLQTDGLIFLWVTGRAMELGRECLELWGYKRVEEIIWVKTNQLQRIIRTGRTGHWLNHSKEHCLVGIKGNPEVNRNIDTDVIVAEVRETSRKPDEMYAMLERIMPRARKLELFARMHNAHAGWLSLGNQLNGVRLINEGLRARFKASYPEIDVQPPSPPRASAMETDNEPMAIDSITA

Results are given in words; binding and its absence hold for the method and conditions named. Binding seen in cells or lysates may run through a third protein. Some entries that bind do so weakly or less than the wild type.

In the case of MTA–cYFP (from UniProt O82486 1-685), the binding entry is recorded as “binds”.
